Reference: PubChem BioAssay AID1259405 (NCATS, 2018)

- Assay: 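Silenced genes that increase secreted GFP made by CHO cells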 (primary screen)
- System: Chinese hamster CHO-K1 ovary cells with stable secreted eGFP expression
- Reagent: single siRNA against mouse genes, 0.8 pmol siRNA per well (2 µl of 400 nM stock)
- Timing: 3 days
- Measured: 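Per-well intracellular GFP measured by laser scanning cytometry, plus viability from ATP luminescence, each relative to plate median of non-targeting control wells, in %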
- Direction: GFP, % of control: higher = more GFP per well, higher productivity; viability (ATP), % of control: higher = more viable cells (more ATP)
- Call rule: 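a knock-down is called active if GFP reaches 120% or more of non-targeting control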
Shown is an unselected part of about 50,000 reagents. About 4,000 of them (8%) were called active. 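Mouse siRNA library applied to hamster cells; one well for each siRNA.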 Entries without a mark were called inactive. Reagents against one gene are numbered here. Reagent sequences are not shown.

target gene	reagent	GFP, % of control	viability (ATP), % of control
Stam2	1	109	78
Stam2	2	105	91.4
Tardbp (TAR DNA binding protein)	1	61.2	67.9
Tardbp (TAR DNA binding protein)	2	34	44.5
Tardbp (TAR DNA binding protein)	3	72.1	78.2
Cenpb (centromere protein B)	1	67.4	75.2
Cenpb (centromere protein B)	2	68.7	45
Cenpb (centromere protein B)	3	86.2	81
Ndfip2 (Nedd4 family interacting protein 2)	1	64.2	95.3
Ndfip2 (Nedd4 family interacting protein 2)	2	69.1	59.6
Ndfip2 (Nedd4 family interacting protein 2)	3	81.2	70.9
Klhl23 (kelch-like 23)	1	61.7	76.4
Klhl23 (kelch-like 23)	2	81.6	80.5
Klhl23 (kelch-like 23)	3	190 (active)	178
Or4k15c (olfactory receptor family 4 subfamily K member 15C)	1	157 (active)	107
Or4k15c (olfactory receptor family 4 subfamily K member 15C)	2	72.9	65
Or4k15c (olfactory receptor family 4 subfamily K member 15C)	3	94	144
Fmn2 (formin 2)	1	57.4	61.9
Fmn2 (formin 2)	2	72.5	85.2
Fmn2 (formin 2)	3	48.6	77.5
Tgif2 (TGFB-induced factor homeobox 2)	1	66.4	97.9
Tgif2 (TGFB-induced factor homeobox 2)	2	42.5	63
Tgif2 (TGFB-induced factor homeobox 2)	3	72.5	79.4
Herc2 (HECT and RLD domain containing E3 ubiquitin protein ligase 2)	1	76.9	37
Herc2 (HECT and RLD domain containing E3 ubiquitin protein ligase 2)	2	128 (active)	85.1
Herc2 (HECT and RLD domain containing E3 ubiquitin protein ligase 2)	3	66.1	83.2
Camp (cathelicidin antimicrobial peptide)	1	120 (active)	131
Camp (cathelicidin antimicrobial peptide)	2	61.2	68.3
Tjp3 (tight junction protein 3)	1	40.9	47.6
Tjp3 (tight junction protein 3)	2	118	98.9
Tjp3 (tight junction protein 3)	3	76.7	137
Dusp4 (dual specificity phosphatase 4)	1	93.2	67.4
Dusp4 (dual specificity phosphatase 4)	2	72.9	80.2
Tiprl (TIP41, TOR signalling pathway regulator-like (S. cerevisiae))	1	43.2	50
Tiprl (TIP41, TOR signalling pathway regulator-like (S. cerevisiae))	2	34.8	33.7
Tiprl (TIP41, TOR signalling pathway regulator-like (S. cerevisiae))	3	61.5	93.8
Zfp954 (zinc finger protein 954)	1	127 (active)	103
Zfp954 (zinc finger protein 954)	2	60	78
Zfp954 (zinc finger protein 954)	3	121 (active)	121
Dmrta2	1	151 (active)	114
Dmrta2	2	81.4	76
Dmrta2	3	41.7	37
Hpx (hemopexin)	1	105	99.8
Hpx (hemopexin)	2	86.2	77.9
Hpx (hemopexin)	3	56.3	46.7
Slc5a2	1	150 (active)	78.5
Slc5a2	2	105	91.1
Slc5a2	3	50.6	43.9

No new results follow: an excerpt of the list.
target gene	reagent	GFP, % of control	viability (ATP), % of control
Or4k15c (olfactory receptor family 4 subfamily K member 15C)	3	94	144
Fmn2 (formin 2)	1	57.4	61.9
Fmn2 (formin 2)	2	72.5	85.2
Fmn2 (formin 2)	3	48.6	77.5
Tgif2 (TGFB-induced factor homeobox 2)	1	66.4	97.9
Tgif2 (TGFB-induced factor homeobox 2)	2	42.5	63

The listing continues:
target gene	reagent	GFP, % of control	viability (ATP), % of control
B3galt1	1	95.4	98.7
B3galt1	2	109	130
B3galt1	3	123 (active)	138
Plgrkt	1	139 (active)	96.9
Plgrkt	2	71.9	82.7
Plgrkt	3	88.6	92.9
Rnmt (RNA (guanine-7-) methyltransferase)	1	102	121
Rnmt (RNA (guanine-7-) methyltransferase)	2	66.5	97.5
Ets2 (Ets proto-oncogene 2, transcription factor)	1	82.6	81.9
Ets2 (Ets proto-oncogene 2, transcription factor)	2	107	100
Ets2 (Ets proto-oncogene 2, transcription factor)	3	100	108
Neurog1 (neurogenin 1)	1	77.6	100
Neurog1 (neurogenin 1)	2	99.6	91.1
Neurog1 (neurogenin 1)	3	110	103
Sephs2 (selenophosphate synthetase 2)	1	96.1	95.6
Sephs2 (selenophosphate synthetase 2)	2	108	147
Sephs2 (selenophosphate synthetase 2)	3	73.2	84.3
Lhfpl1 (lipoma HMGIC fusion partner-like 1)	1	48.7	64.5
Lhfpl1 (lipoma HMGIC fusion partner-like 1)	2	73.7	62.2
Lhfpl1 (lipoma HMGIC fusion partner-like 1)	3	59	68.9
Entpd1 (ectonucleoside triphosphate diphosphohydrolase 1)	1	76.1	80.6
Entpd1 (ectonucleoside triphosphate diphosphohydrolase 1)	2	107	82.9
Entpd1 (ectonucleoside triphosphate diphosphohydrolase 1)	3	106	88.9
A430010J10Rik (RIKEN cDNA A430010J10 gene)	1	85.3	91.8
A430010J10Rik (RIKEN cDNA A430010J10 gene)	2	69	58.8
A430010J10Rik (RIKEN cDNA A430010J10 gene)	3	56.5	69.2
Nup85 (nucleoporin 85)	1	64.9	42.6
Nup85 (nucleoporin 85)	2	112	92.9
Nup85 (nucleoporin 85)	3	81.9	95.3
Tpp2 (tripeptidyl peptidase II)	1	57.9	82.5
Tpp2 (tripeptidyl peptidase II)	2	53.4	63.2
Tpp2 (tripeptidyl peptidase II)	3	80	93.3
Tox3 (TOX high mobility group box family member 3)	1	72.2	88
Tox3 (TOX high mobility group box family member 3)	2	90.4	84.8
Tox3 (TOX high mobility group box family member 3)	3	79.6	72.5
P2rx7 (purinergic receptor P2X, ligand-gated ion channel, 7)	1	79.4	68.9
P2rx7 (purinergic receptor P2X, ligand-gated ion channel, 7)	2	82	69.6
P2rx7 (purinergic receptor P2X, ligand-gated ion channel, 7)	3	51.4	65.3
